{"source": "paper PMC3143129", "tested_on": "SATB1 + JUNB", "test": "EMSA + LC-MS/MS of band", "conditions": "NFAT1-deficient Th2 nuclear extract, anti-CD3 6 h, signal much stronger than with WT Th2 extract; 10 mM Tris pH 7.5, 0.5 mM MgCl2, 80 mM NaCl, 2.5 mM DTT, 4% glycerol, 1 mM beta-mercaptoethanol, 10 ug nuclear extract, 1 h on ice; 5% PAGE in 0.25x TBE at 4 C; protein in an extract; label: 32P 5' end", "note": "The exact form of at least one protein or probe is not confirmed. At least one result comes from cells or an extract, where the contact may be indirect."}
{"sequence": "CTGGTGTAATAAAATTTTCCAATGTAAACTCATTT (double strand) [IL-4 promoter P2 (-196 to -163)]", "values": [{"measurement": "binding result", "value": "binds"}]}
